Test: general procedure: peptide synthesis; PyBop/diisopropylethylamine
Conditions: late stage modification step

**Q.** Which step yield does the source give for “Deoxy-Actagardine B N-[3-dimethylaminopropyl]monocarboxamide” here?
**A.** The step yield was 85%.
